# Values from PubChem BioAssay AID1259254 (NCATS, 2017).
# Purpose: 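Genome-wide screen for genes that prevent DNA re-replication in cancer cells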 (primary screen)
# System: human HCT116 colorectal cancer cells
# Knock-down reagent: single siRNA against human genes
# Duration: 3 days
# Detection: 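Imaged Hoechst DNA stain sorts each cell into a cycle phase by DNA amount; per plate, G2 fraction set to 0% for non-targeting and 100% for GMNN siRNA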
# Scale: G2 robust z-score and G2 cells, % of GMNN control: higher = more G2 cells, more excess DNA replication; raw share of cells in G2: higher = larger share of cells with G2 DNA content
# Call rule: 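An siRNA counts as active if its G2 robust z-score lies at least 5 MADs above the screen median; here such calls match roughly 38% of GMNN control or more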
# In all, the deposit lists about 59,000 reagents; below is a random part of them. In the full data, about 1,550 (2.6%) got an active call. 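G2 share is only a proxy for re-replication; each gene was hit by three separate siRNAs, and active genes were retested.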 Raw values are not corrected between plates. The numbers tell different reagents against one gene apart. Not given: the amount of reagent.
gene,reagent,G2 robust z-score,"G2 cells, % of GMNN control",raw share of cells in G2 (%),Outcome
SMOC1 (SPARC related modular calcium binding 1),1,0.0987,3.66,4.08,inactive
SMOC1 (SPARC related modular calcium binding 1),2,-1.14,-5.04,3.63,inactive
SMOC1 (SPARC related modular calcium binding 1),3,0.441,6.07,5.54,inactive
FHDC1 (FH2 domain containing 1),1,-0.327,0.668,4.37,inactive
FHDC1 (FH2 domain containing 1),2,0.324,5.25,4.65,inactive
FHDC1 (FH2 domain containing 1),3,1.09,10.7,6.3,inactive
RNF168 (ring finger protein 168),1,0.469,6.27,5.85,inactive
RNF168 (ring finger protein 168),2,-0.323,0.694,3.19,inactive
RNF168 (ring finger protein 168),3,-0.0801,2.4,3.52,inactive
"PRAG1 (PEAK1 related, kinase-activating pseudokinase 1)",1,-0.539,-0.822,3.31,inactive
"PRAG1 (PEAK1 related, kinase-activating pseudokinase 1)",2,-1.02,-4.22,1.54,inactive
"PRAG1 (PEAK1 related, kinase-activating pseudokinase 1)",3,0.404,5.81,4.6,inactive
DCAF11 (DDB1 and CUL4 associated factor 11),1,-1.12,-4.89,2.42,inactive
DCAF11 (DDB1 and CUL4 associated factor 11),2,-0.54,-0.83,3.94,inactive
DCAF11 (DDB1 and CUL4 associated factor 11),3,-0.273,1.04,2.66,inactive
GOLGA8B (golgin A8 family member B),1,0.565,6.94,6.05,inactive
GOLGA8B (golgin A8 family member B),2,-0.082,2.39,3.93,inactive
GOLGA8B (golgin A8 family member B),3,-0.515,-0.656,3.37,inactive
ATP8B2 (ATPase phospholipid transporting 8B2),1,-1.02,-4.19,3.91,inactive
ATP8B2 (ATPase phospholipid transporting 8B2),2,0.054,3.35,5.53,inactive
ATP8B2 (ATPase phospholipid transporting 8B2),3,0.807,8.65,7.37,inactive
TSPAN7 (tetraspanin 7),1,2.53,20.8,14.3,inactive
TSPAN7 (tetraspanin 7),2,-0.131,2.05,4.71,inactive
TSPAN7 (tetraspanin 7),3,0.798,8.58,6.38,inactive
PRR16 (proline rich 16),1,0.732,8.12,6.51,inactive
PRR16 (proline rich 16),2,4.83,37,19.8,inactive
PRR16 (proline rich 16),3,-0.654,-1.63,2.65,inactive
ATAT1 (alpha tubulin acetyltransferase 1),1,0.864,9.04,8.2,inactive
ATAT1 (alpha tubulin acetyltransferase 1),2,1.78,15.5,11.1,inactive
ATAT1 (alpha tubulin acetyltransferase 1),3,0.294,5.03,3.75,inactive
MEGF11 (multiple EGF like domains 11),1,-0.416,0.0416,4.12,inactive
MEGF11 (multiple EGF like domains 11),2,-0.183,1.68,3.96,inactive
MEGF11 (multiple EGF like domains 11),3,-0.11,2.19,3.07,inactive

In a second layout: results already given
GOLGA8B (golgin A8 family member B) #2: G2 robust z-score = -0.082; G2 cells, % of GMNN control = 2.39; raw share of cells in G2 (%) = 3.93; Outcome = inactive
GOLGA8B (golgin A8 family member B) #3: G2 robust z-score = -0.515; G2 cells, % of GMNN control = -0.656; raw share of cells in G2 (%) = 3.37; Outcome = inactive
ATP8B2 (ATPase phospholipid transporting 8B2) #1: G2 robust z-score = -1.02; G2 cells, % of GMNN control = -4.19; raw share of cells in G2 (%) = 3.91; Outcome = inactive
ATP8B2 (ATPase phospholipid transporting 8B2) #2: G2 robust z-score = 0.054; G2 cells, % of GMNN control = 3.35; raw share of cells in G2 (%) = 5.53; Outcome = inactive
ATP8B2 (ATPase phospholipid transporting 8B2) #3: G2 robust z-score = 0.807; G2 cells, % of GMNN control = 8.65; raw share of cells in G2 (%) = 7.37; Outcome = inactive
TSPAN7 (tetraspanin 7) #1: G2 robust z-score = 2.53; G2 cells, % of GMNN control = 20.8; raw share of cells in G2 (%) = 14.3; Outcome = inactive
TSPAN7 (tetraspanin 7) #2: G2 robust z-score = -0.131; G2 cells, % of GMNN control = 2.05; raw share of cells in G2 (%) = 4.71; Outcome = inactive

More reagents follow:
gene,reagent,G2 robust z-score,"G2 cells, % of GMNN control",raw share of cells in G2 (%),Outcome
IL10RB (interleukin 10 receptor subunit beta),1,-0.0441,2.66,6.01,inactive
IL10RB (interleukin 10 receptor subunit beta),2,-0.912,-3.45,4.37,inactive
IL10RB (interleukin 10 receptor subunit beta),3,-0.643,-1.56,3.63,inactive
ANGPTL4 (angiopoietin like 4),1,-0.0383,2.7,4.83,inactive
ANGPTL4 (angiopoietin like 4),2,-0.592,-1.2,3.8,inactive
ANGPTL4 (angiopoietin like 4),3,-1.36,-6.58,2.97,inactive
SLC25A34,1,2.16,18.1,12,inactive
SLC25A34,2,2.15,18.1,10.9,inactive
SLC25A34,3,3.03,24.3,16.4,inactive
TBK1 (TANK binding kinase 1),1,0.139,3.95,6.91,inactive
TBK1 (TANK binding kinase 1),2,0.0861,3.57,6.61,inactive
TBK1 (TANK binding kinase 1),3,-1,-4.07,2.59,inactive
KRTAP13-2 (keratin associated protein 13-2),1,0.409,5.85,6,inactive
KRTAP13-2 (keratin associated protein 13-2),2,-0.313,0.765,3.59,inactive
KRTAP13-2 (keratin associated protein 13-2),3,-0.653,-1.63,3.53,inactive
RAD21 (RAD21 cohesin complex component),1,-0.151,1.9,5.78,inactive
RAD21 (RAD21 cohesin complex component),2,1.75,15.3,10.3,inactive
RAD21 (RAD21 cohesin complex component),3,2.27,18.9,10.2,inactive
SPATA6L (spermatogenesis associated 6 like),1,-0.942,-3.66,3.12,inactive
SPATA6L (spermatogenesis associated 6 like),2,1.58,14.1,9.97,inactive
SPATA6L (spermatogenesis associated 6 like),3,1.45,13.2,7.34,inactive
WDR83OS (WD repeat domain 83 opposite strand),1,-0.643,-1.56,3.04,inactive
WDR83OS (WD repeat domain 83 opposite strand),2,3.74,29.3,16.6,inactive
WDR83OS (WD repeat domain 83 opposite strand),3,-0.923,-3.53,2.03,inactive
FAM78A (family with sequence similarity 78 member A),1,1.35,12.5,8.19,inactive
FAM78A (family with sequence similarity 78 member A),2,1.35,12.5,7.87,inactive
FAM78A (family with sequence similarity 78 member A),3,-0.616,-1.37,2.85,inactive
ATP5PF (ATP synthase peripheral stalk subunit F6),1,2.6,21.3,11.9,inactive
ATP5PF (ATP synthase peripheral stalk subunit F6),2,-0.48,-0.413,4.58,inactive
ATP5PF (ATP synthase peripheral stalk subunit F6),3,4.58,35.2,17.6,inactive
RNASE13 (ribonuclease A family member 13 (inactive)),1,-0.67,-1.75,2.53,inactive
RNASE13 (ribonuclease A family member 13 (inactive)),2,6.49,48.6,22.4,active
RNASE13 (ribonuclease A family member 13 (inactive)),3,2.62,21.4,11.5,inactive
DTX2 (deltex E3 ubiquitin ligase 2),1,-0.745,-2.27,2.73,inactive
DTX2 (deltex E3 ubiquitin ligase 2),2,0.405,5.82,5.19,inactive
DTX2 (deltex E3 ubiquitin ligase 2),3,-0.642,-1.55,2.56,inactive
